This is one part of the list.
The molecules below were run on T1, CTL2-GFP (C. trachomatis L2/434/Bu, GFP-expressing). Details: bulk GFP, single well; 28.5 h, 10 µM; inhibitor.
T1 construct: L2/434/Bu, GFP-expressing
Set-up: species or system HeLa; Intracellular C. trachomatis growth in HeLa cells, bulk GFP fluorescence relative to DMSO
With `CCN(CC)CCn1nc2n(c1=O)-c1ccccc1SC(c1ccccc1)C2` (stereo not shown) [CBK016064] the “% of control remaining” value was 103.029%.
In the case of `C=C(C)Cn1c(SCC(C)C)nnc1-c1cnccc1C` [CBK200075T], the “% of control remaining” value is reported as 132.023%.
For `CS(=O)(=O)N1CC[C@H](c2nc3ccccc3s2)C1` [CBK289374], the “% of control remaining” value was 135.199%.
`CC(C)OC(=O)CN1C(=O)N2CCCN=C2c2ccccc21` [CBK284394] was tested, and the “% of control remaining” value was 117.163%.
`COc1ccc(C2NCCS2)cc1Br` (stereo not shown) [CBK021053] was tested, and the “% of control remaining” value was 103.103%.
With `CC(C(=O)Nc1sc2c(c1C(=O)NCc1ccco1)CCCC2)N1C(=O)c2ccccc2C1=O` (stereo not shown) [CBK265603] the “% of control remaining” value was 100%.
`CSc1nnc(CC2CCN(C(=O)Cn3nnnc3N)CC2)n1C` [CBK306520] was tested, and the “% of control remaining” value was 128.885%.
For `CN1N=C(c2ccc(N3CCOCC3)c(F)c2)CC1c1cnn(C)c1` (stereo not shown) [CBK305726], the “% of control remaining” value was 112.923%.
With `Cc1ccc(C(=O)/C=C(\Nc2cccc(C(F)(F)F)c2)C(=O)O)cc1` [CBK264366] the “% of control remaining” value was 118.536%.
With `COc1ccnc(N2CCN(C(=O)c3cccc4c3NCCC4)CC2)n1` [CBK306639] the “% of control remaining” value was 107.358%.
For `CC(C)OCc1ccc(C(=O)N2CCC(C(=O)O)CC2)cc1` [CBK297141], the “% of control remaining” value was 147.53%.
In the case of `N#CCCN(C(=O)NCc1ccc2c(c1)OCO2)C1CCCCC1` [CBK156351], the “% of control remaining” value is reported as 139.701%.
With `Cc1cc(C[C@@H]2CCC[C@H]2NCc2c(C)nn(C(C)C)c2C)on1` [CBK285453] the “% of control remaining” value was 111.798%.
With `CN1CCN(c2nc(-c3ccccc3CO)cn3ccnc23)CC1` [CBK066347] the “% of control remaining” value was 95.9694%.
With `COc1ccc(F)c(CN(CC(C)(C)CN)C(=O)Nc2ccccc2C(C)(C)C)c1` [CBK002478C] the “% of control remaining” value was 130.62%.
`c1ccc2c(N3CCCCC3)cnnc2c1` [CBK066897] was tested, and the “% of control remaining” value was 83.9209%.
`CC(C)C1c2cccn2CCN1S(=O)(=O)c1ccc2[nH]c(=O)[nH]c(=O)c2c1` (stereo not shown) [CBK286391] was tested, and the “% of control remaining” value was 123.275%.
In the case of `O=C(Nc1cccnc1)c1cc2cc(OC(F)(F)F)ccc2[nH]1` [CBK107313], the “% of control remaining” value is reported as 100%.
For `O=C(c1cccs1)N1C[C@H](c2ccc(F)cc2)[C@H]2CN(Cc3ccccc3)CC[C@H]21` [CBK285544], the “% of control remaining” value was 86.088%.
With `Cc1ccccc1NC(=O)CC(C(=O)O)N1CCOCC1` (stereo not shown) [CBK266969] the “% of control remaining” value was 139.649%.
In the case of `CCN1C(=O)C2(CC(=O)N(CC3CCCCC3)C2=O)c2cc(C)ccc21` (stereo not shown) [CBK075216], the “% of control remaining” value is reported as 119.879%.
For `Cc1nc(C)c(CC(=O)Nc2cccc(CN3CCCC3)c2)s1` [CBK281426], the “% of control remaining” value was 87.9945%.
In the case of `CSc1ncc(Cl)c(C(=O)NCCc2ccc(S(N)(=O)=O)cc2)n1` [CBK268679], the “% of control remaining” value is reported as 124.207%.
For `CCc1ccc(CNC(=O)Cn2nnc(-c3ccc(CNC4CCC4)cc3)n2)cc1` [CBK155006T], the “% of control remaining” value was 131.27%.
For `O=S(=O)(Nc1ccc2[nH]ncc2c1)c1ccc(Oc2ccccc2)cc1` [CBK062522], the “% of control remaining” value was 96.1305%.
In the case of `O=C(c1nccs1)C1CCN(C(=O)CC2CCCC2)CC1` [CBK284207], the “% of control remaining” value is reported as 73.9656%.
With `O=c1[nH][nH]c2nc(O)cc(C(F)(F)F)c12` [CBK027081] the “% of control remaining” value was 116.672%.
`N#Cc1ccc(CSc2cccc(F)c2)cc1` [CBK002918] was tested, and the “% of control remaining” value was 79.9575%.
With `Cc1cc(-n2cccn2)ccc1CN1CCCCC1CN1CCOCC1` (stereo not shown) [CBK307442] the “% of control remaining” value was 106.854%.
`Cc1ccc(-c2n[nH]c(=S)n2CCC(=O)NCc2ccc(-c3csc(C)n3)s2)cc1` [CBK297924] was tested, and the “% of control remaining” value was 120.716%.
With `O=C(c1ccc(F)cc1)C1CCN(CC(O)COc2cccc3c2CCCC3)CC1` (stereo not shown) [CBK003583] the “% of control remaining” value was 122.333%.
`O=C(O)CCC(=O)Nc1ccc(-c2nc3ccccc3o2)cc1` [CBK261330] was tested, and the “% of control remaining” value was 112.5%.
With `O=C(c1cccs1)N1CCCN(Cc2cn3ccccc3n2)CC1` [CBK305304] the “% of control remaining” value was 108.737%.
With `Fc1cccc(-c2nc3cnccn3c2NCc2cccs2)c1` [CBK282363] the “% of control remaining” value was 151.16%.
In the case of `NC1=NN2C(=C(c3ccc(O)c(C(=O)O)c3)NN2c2ccccc2)N1` [CBK025631], the “% of control remaining” value is reported as 97.9187%.
`CC(C)(C)OC(=O)N1CCC2(CC1)NC(=O)c1cc(-c3cccc(S(C)(=O)=O)c3)ccc1O2` [CBK131967] was tested, and the “% of control remaining” value was 122.924%.
`CCC(=O)Nc1ccc(-c2nc3ccccc3[nH]2)cc1` [CBK287561] was tested, and the “% of control remaining” value was 131.516%.
`O=C(c1ccco1)N1CCC(Cn2cncn2)(C2CCCCC2)CC1` [CBK136811] was tested, and the “% of control remaining” value was 134.205%.
With `Cn1c(=O)c2c(nc(CN3CCCCC3)n2CCCc2ccccc2)n(C)c1=O` [CBK269521] the “% of control remaining” value was 136.129%.
In the case of `Cc1[nH]c(=S)[nH]c(=O)c1Cc1cccc2ccccc12` [CBK115563], the “% of control remaining” value is reported as 92.3455%.
In the case of `O=C(NCc1cccs1)c1cnoc1-c1ccc([N+](=O)[O-])cc1` [CBK153845], the “% of control remaining” value is reported as 100%.
With `C=CCn1c(Cc2csc(NC(=O)c3cccc(Cl)c3)n2)n[nH]c1=S` [CBK295314] the “% of control remaining” value was 137.857%.
For `CCCCc1nc(CS(=O)(=O)C(C)c2nc(C(C)C)no2)cs1` (stereo not shown) [CBK305707], the “% of control remaining” value was 100.621%.
With `COc1ccccc1CN(C(=O)Nc1ccc(S(C)(=O)=O)cc1)C1CC1` [CBK305787] the “% of control remaining” value was 109.947%.
With `CS(=O)(=O)c1cccc(-c2cnc(NCC3CC3)c(C(=O)Nc3ccc4c(c3)OCO4)c2)c1` [CBK076362] the “% of control remaining” value was 94.0669%.
For `CCOC(=O)C1CCCN(C(=O)Cn2ncc(Cl)c(Cl)c2=O)C1` (stereo not shown) [CBK305573], the “% of control remaining” value was 78.8542%.
For `O=S(=O)(c1cccc(F)c1)N1CCC(Cc2ccccc2)CC1` [CBK044828], the “% of control remaining” value was 108.325%.
For `COC(=O)c1ccccc1NC(=O)CNS(=O)(=O)c1ccc(C)cc1` [CBK266000], the “% of control remaining” value was 190.925%.
`COc1ccc(CC(=O)NC(CCSC)c2nc3ccccc3[nH]2)cc1` (stereo not shown) [CBK306050] was tested, and the “% of control remaining” value was 123.635%.
For `Cc1cc(C)n(C(C)CNC(=O)c2cc(C3CC3)on2)n1` (stereo not shown) [CBK283243], the “% of control remaining” value was 121.322%.
`CN(C)CCNC(=O)c1ccc(-c2ccccc2S(=O)(=O)Nc2ccc(C(=O)O)c(O)c2)cc1` [CBK174050] was tested, and the “% of control remaining” value was 129.909%.
For `COc1cc(/C=C2\SC(=S)N(CC(=O)NNC(=O)c3ccccc3O)C2=O)ccc1O` [CBK261301], the “% of control remaining” value was 111.473%.
With `O=C(O)c1nn(-c2ccccc2)c2cc([N+](=O)[O-])ccc12` [CBK006532] the “% of control remaining” value was 97.4702%.
In the case of `Cc1ccc(S(=O)(=O)NCCSCc2ccc(Cl)cc2)cc1[N+](=O)[O-]` [CBK264056], the “% of control remaining” value is reported as 93.7905%.
`CCN(CC)S(=O)(=O)c1csc(C(=O)Nc2cccc([N+](=O)[O-])c2)c1` [CBK264505] was tested, and the “% of control remaining” value was 100%.
For `CC(NC(=O)CCc1cn(C)c2ccccc12)c1ccccn1` (stereo not shown) [CBK281889], the “% of control remaining” value was 110.325%.
With `CN(C)c1ccc(-c2noc([C@@H]3CCCN3C)n2)cn1` [CBK288902] the “% of control remaining” value was 122.282%.
For `Cc1cc(=O)oc2cc(OC(=O)C(Cc3ccccc3)N3C(=O)c4ccccc4C3=O)ccc12` (stereo not shown) [CBK033943], the “% of control remaining” value was 100%.
In the case of `COc1ccc(C(NC(=O)Cn2cccnc2=O)C2CC(O)C2)cn1` (stereo not shown) [CBK307527], the “% of control remaining” value is reported as 146.002%.
For `Cc1cccc(-n2c(C#N)c(O)c3ccccc32)c1C` [CBK115319], the “% of control remaining” value was 83.7864%.
In the case of `COC(=O)c1ccc(NC(=O)CN(c2ccc(F)c(Cl)c2)S(C)(=O)=O)cc1` [CBK267657], the “% of control remaining” value is reported as 106.394%.
In the case of `CC(=O)Nc1cc(Cl)ccc1OS(=O)(=O)c1ccc(Cl)cc1` [CBK264992], the “% of control remaining” value is reported as 116.464%.
With `Cc1ccccc1OCCNS(=O)(=O)c1cccc([N+](=O)[O-])c1` [CBK264195] the “% of control remaining” value was 100%.
For `Cc1noc(C)c1S(=O)(=O)Nc1ccccc1C(=O)O` [CBK042371], the “% of control remaining” value was 104.792%.
In the case of `Cc1ccccc1-c1ccc(C(=O)NC2CCCCC2)c(NCc2cccnc2)n1` [CBK076159], the “% of control remaining” value is reported as 103%.
With `O=C(c1[nH]c2ccccc2c1NS(=O)(=O)Cc1ccccc1[N+](=O)[O-])N1CCOCC1` [CBK050079] the “% of control remaining” value was 89.2035%.
`CC(=O)c1c(C(C)=O)c(C)n(-c2ccc(C(=O)O)cc2)c1C` [CBK287036] was tested, and the “% of control remaining” value was 129.002%.
With `COC(=O)CCSc1nc(C)nc2c1c(=O)n(C)c(=O)n2CC(C)C` [CBK305891] the “% of control remaining” value was 105.814%.
With `Fc1ccc(COc2ccc(Cl)cc2CNCc2ccccn2)cc1` [CBK269899C] the “% of control remaining” value was 150.554%.
For `O=C(O)c1ccc2c(c1)C(=O)N(C1=NCCS1)C2=O` [CBK021809], the “% of control remaining” value was 130.404%.
With `O=S(=O)(Nc1cccc(-c2cnco2)c1)c1ccc(Br)cc1C(F)(F)F` [CBK067118] the “% of control remaining” value was 123.969%.
With `Cc1cc(NS(=O)(=O)c2ccc(Br)cc2C(F)(F)F)n(C)n1` [CBK067255] the “% of control remaining” value was 113.935%.
For `COc1cccc(OCC(O)CN(C)S(=O)(=O)O)c1` (stereo not shown) [CBK027121N], the “% of control remaining” value was 120.633%.
`Cc1ccc(C(=O)NNC(=O)/C=C\C(=O)O)cc1` [CBK261842] was tested, and the “% of control remaining” value was 108.551%.
With `O=C(NCCc1cccnc1)C1CCCN(c2nc3c(-c4ccccc4)csc3c(=O)[nH]2)C1` (stereo not shown) [CBK215495] the “% of control remaining” value was 159.697%.
In the case of `C#CCNC(=O)C1CCN(c2nc3ccccc3n2C)CC1` [CBK283956], the “% of control remaining” value is reported as 140.481%.
`CC(C)Nc1cncc(SCCN(C)C)n1` [CBK105292] was tested, and the “% of control remaining” value was 119.686%.
In the case of `Cc1ccc(C)c(NC(=O)C(Cc2ccccc2)N2C(=O)c3cc(Cl)c(Cl)cc3C2=O)c1` (stereo not shown) [CBK264232], the “% of control remaining” value is reported as 116.057%.
`CCOC(=O)C1CCCN(CCC(=O)Nc2cc(C)ccc2C)C1` (stereo not shown) [CBK264287C] was tested, and the “% of control remaining” value was 100%.
